{"source": "PubChem BioAssay AID743454 (Peter MacCallum Cancer Centre, 2014)", "assay": "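Genes whose loss kills vorinostat-resistant colon cancer cells under vorinostat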 (primary screen)", "cell system": "human HCT116-VR colon cancer cells, selected for vorinostat resistance", "reagent": "siRNA pool against human genes, 40 nM siRNA pool", "duration": "vorinostat for 24 h, read-out about 72 h after transfection", "treatment": "vorinostat at 2.5 µM final", "measurement": "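Two measures, CellTiter-Fluor viability and luminescent caspase 3/7 activity, each as fold change against same-plate mock wells, mean of duplicates, then screen-wide robust z-score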", "reading the numbers": "viability robust z-score: higher = more viable cells than screen typical; caspase robust z-score: higher = more caspase 3/7 activity than screen typical", "hit rule": "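a knock-down is a hit when classed RV1 or RV2 for lowered viability, or CA1 or CA2 for caspase activation; those lethal without drug were dropped; hits were retested singly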", "note": "This is an unselected part of about 18,000 reagents. 450 of all reagents (2.5%) were called active. 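Single biological run; no consistent viability z cut-off exists, so the class columns, not z-scores, define the calls.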 Entries without a mark were called inactive."}
{"gene": "CHRD", "viability hit class": "no change", "caspase hit class": "no change", "viability robust z-score": 1.58, "caspase robust z-score": -0.4}
{"gene": "CEP290", "viability hit class": "no change", "caspase hit class": "no change", "viability robust z-score": 0.29, "caspase robust z-score": 0.31}
{"gene": "SPCS2", "viability hit class": "no change", "caspase hit class": "no change", "viability robust z-score": 0.74, "caspase robust z-score": 0.7}
{"gene": "RLN1", "viability hit class": "no change", "caspase hit class": "no change", "viability robust z-score": 0.08, "caspase robust z-score": 0.5}
{"gene": "NRP2", "viability hit class": "no change", "caspase hit class": "no change", "viability robust z-score": -0.32, "caspase robust z-score": 2.8}
{"gene": "SNX32", "viability hit class": "no change", "caspase hit class": "no change", "viability robust z-score": 0.2, "caspase robust z-score": 1.02}
{"gene": "SNAP91", "viability hit class": "no change", "caspase hit class": "no change", "viability robust z-score": 1.26, "caspase robust z-score": -1.23}
{"gene": "LINC03040", "viability hit class": "no change", "caspase hit class": "no change", "viability robust z-score": 0.38, "caspase robust z-score": -0.24}
{"gene": "PNPLA3", "viability hit class": "no change", "caspase hit class": "no change", "viability robust z-score": -0.07, "caspase robust z-score": -0.91}

The list goes on; the last 3 above are carried over.
{"gene": "SNAP91", "viability hit class": "no change", "caspase hit class": "no change", "viability robust z-score": 1.26, "caspase robust z-score": -1.23}
{"gene": "LINC03040", "viability hit class": "no change", "caspase hit class": "no change", "viability robust z-score": 0.38, "caspase robust z-score": -0.24}
{"gene": "PNPLA3", "viability hit class": "no change", "caspase hit class": "no change", "viability robust z-score": -0.07, "caspase robust z-score": -0.91}
{"gene": "SKIDA1", "viability hit class": "no change", "caspase hit class": "no change", "viability robust z-score": -0.02, "caspase robust z-score": 0.08}
{"gene": "ZNF57", "viability hit class": "no change", "caspase hit class": "no change", "viability robust z-score": -0.57, "caspase robust z-score": -0.05}
{"gene": "CYSTM1", "viability hit class": "no change", "caspase hit class": "no change", "viability robust z-score": 0.24, "caspase robust z-score": -0.46}
{"gene": "MALSU1", "viability hit class": "no change", "caspase hit class": "no change", "viability robust z-score": 0.4, "caspase robust z-score": -0.74}
{"gene": "OR1M1", "viability hit class": "no change", "caspase hit class": "no change", "viability robust z-score": 0.35, "caspase robust z-score": 0.5}
{"gene": "ATP5MJ", "viability hit class": "no change", "caspase hit class": "no change", "viability robust z-score": 0.97, "caspase robust z-score": -0.9}
{"gene": "THOC6", "viability hit class": "no change", "caspase hit class": "no change", "viability robust z-score": 0.26, "caspase robust z-score": -0.19}
{"gene": "GLI1", "viability hit class": "no change (active)", "caspase hit class": "CA2 (caspase activation)", "viability robust z-score": -2.35, "caspase robust z-score": 5.98}
{"gene": "CLEC1A", "viability hit class": "no change", "caspase hit class": "no change", "viability robust z-score": 1.09, "caspase robust z-score": 0.09}
{"gene": "COL24A1", "viability hit class": "no change", "caspase hit class": "no change", "viability robust z-score": 1.25, "caspase robust z-score": -0.98}
{"gene": "SCARF1", "viability hit class": "no change", "caspase hit class": "no change", "viability robust z-score": -1.55, "caspase robust z-score": 3.25}
{"gene": "PIGR", "viability hit class": "no change", "caspase hit class": "no change", "viability robust z-score": -1.84, "caspase robust z-score": 4.01}
